# Reference: PubChem BioAssay (EPA / NIEHS)
# Chains of the proteins cited; added tags and fusions are not shown. Lines headed by an entry give the natural chain unless they say otherwise; changes in a name come on top.
# UniProt O75469: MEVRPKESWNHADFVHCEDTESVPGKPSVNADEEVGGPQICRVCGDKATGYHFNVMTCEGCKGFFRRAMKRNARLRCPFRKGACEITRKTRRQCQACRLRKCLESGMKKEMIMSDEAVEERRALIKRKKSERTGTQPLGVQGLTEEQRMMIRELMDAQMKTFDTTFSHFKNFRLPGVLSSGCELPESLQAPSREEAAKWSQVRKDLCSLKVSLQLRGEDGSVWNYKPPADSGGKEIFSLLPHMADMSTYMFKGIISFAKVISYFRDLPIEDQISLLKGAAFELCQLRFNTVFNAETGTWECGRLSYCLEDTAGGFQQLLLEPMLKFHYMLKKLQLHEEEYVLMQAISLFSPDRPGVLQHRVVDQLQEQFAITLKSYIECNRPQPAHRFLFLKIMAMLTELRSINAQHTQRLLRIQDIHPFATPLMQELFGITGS
# UniProt P19793: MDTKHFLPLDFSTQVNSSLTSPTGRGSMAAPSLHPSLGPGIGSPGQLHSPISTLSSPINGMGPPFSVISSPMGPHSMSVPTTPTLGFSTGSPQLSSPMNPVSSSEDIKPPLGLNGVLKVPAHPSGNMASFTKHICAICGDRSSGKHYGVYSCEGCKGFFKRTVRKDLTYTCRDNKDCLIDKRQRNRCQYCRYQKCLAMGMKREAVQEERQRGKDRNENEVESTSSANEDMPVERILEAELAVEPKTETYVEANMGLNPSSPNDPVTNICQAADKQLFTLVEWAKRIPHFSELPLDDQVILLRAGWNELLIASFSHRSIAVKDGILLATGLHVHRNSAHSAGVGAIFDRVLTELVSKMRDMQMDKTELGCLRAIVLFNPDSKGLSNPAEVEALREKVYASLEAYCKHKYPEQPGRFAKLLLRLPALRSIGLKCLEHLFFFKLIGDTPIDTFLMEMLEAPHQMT
# UniProt P11473: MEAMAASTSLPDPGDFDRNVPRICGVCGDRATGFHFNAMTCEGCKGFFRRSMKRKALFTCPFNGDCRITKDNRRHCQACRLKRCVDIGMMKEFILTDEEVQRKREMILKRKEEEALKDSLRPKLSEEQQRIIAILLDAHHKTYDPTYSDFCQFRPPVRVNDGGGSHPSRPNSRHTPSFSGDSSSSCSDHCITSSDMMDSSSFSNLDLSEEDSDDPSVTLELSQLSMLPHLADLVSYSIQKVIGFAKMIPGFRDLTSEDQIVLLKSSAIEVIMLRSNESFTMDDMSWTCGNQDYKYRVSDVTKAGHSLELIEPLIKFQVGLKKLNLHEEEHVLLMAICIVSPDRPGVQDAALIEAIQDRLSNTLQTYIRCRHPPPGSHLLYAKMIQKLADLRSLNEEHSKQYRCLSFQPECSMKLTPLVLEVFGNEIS
# UniProt P03372, whole entry, looked up: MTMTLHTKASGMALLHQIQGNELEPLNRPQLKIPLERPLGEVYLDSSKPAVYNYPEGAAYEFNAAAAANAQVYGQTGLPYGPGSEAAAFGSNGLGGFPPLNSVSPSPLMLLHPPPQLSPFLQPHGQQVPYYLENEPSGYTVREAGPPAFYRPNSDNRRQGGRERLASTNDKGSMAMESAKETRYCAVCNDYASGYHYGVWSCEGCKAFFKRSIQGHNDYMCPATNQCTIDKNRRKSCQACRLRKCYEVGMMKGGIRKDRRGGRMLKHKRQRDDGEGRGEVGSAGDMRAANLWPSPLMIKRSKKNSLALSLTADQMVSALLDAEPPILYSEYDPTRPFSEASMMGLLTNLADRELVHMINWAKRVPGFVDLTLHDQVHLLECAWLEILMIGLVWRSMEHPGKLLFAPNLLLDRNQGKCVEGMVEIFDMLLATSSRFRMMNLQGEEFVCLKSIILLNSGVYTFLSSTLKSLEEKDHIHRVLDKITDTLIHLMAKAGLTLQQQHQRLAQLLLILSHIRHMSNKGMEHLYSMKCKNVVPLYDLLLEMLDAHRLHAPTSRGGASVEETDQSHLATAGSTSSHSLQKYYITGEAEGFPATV
# UniProt P19785, whole entry, looked up: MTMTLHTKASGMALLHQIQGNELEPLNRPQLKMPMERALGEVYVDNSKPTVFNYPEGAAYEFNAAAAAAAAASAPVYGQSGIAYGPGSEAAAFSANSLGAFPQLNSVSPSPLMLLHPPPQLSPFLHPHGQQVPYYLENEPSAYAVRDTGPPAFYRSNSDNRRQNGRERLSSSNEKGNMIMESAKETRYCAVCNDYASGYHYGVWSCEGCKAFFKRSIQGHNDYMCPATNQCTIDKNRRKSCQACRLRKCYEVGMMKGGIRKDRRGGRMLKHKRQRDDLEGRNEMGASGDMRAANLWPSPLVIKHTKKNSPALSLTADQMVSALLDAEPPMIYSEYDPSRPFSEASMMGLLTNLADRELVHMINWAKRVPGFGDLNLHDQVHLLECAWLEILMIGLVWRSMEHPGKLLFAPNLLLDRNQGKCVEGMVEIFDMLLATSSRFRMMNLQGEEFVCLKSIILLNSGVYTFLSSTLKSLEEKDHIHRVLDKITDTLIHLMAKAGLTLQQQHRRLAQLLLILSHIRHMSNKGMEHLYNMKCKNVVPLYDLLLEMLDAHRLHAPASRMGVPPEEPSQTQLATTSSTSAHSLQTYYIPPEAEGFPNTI
# UniProt P04637, whole entry, looked up: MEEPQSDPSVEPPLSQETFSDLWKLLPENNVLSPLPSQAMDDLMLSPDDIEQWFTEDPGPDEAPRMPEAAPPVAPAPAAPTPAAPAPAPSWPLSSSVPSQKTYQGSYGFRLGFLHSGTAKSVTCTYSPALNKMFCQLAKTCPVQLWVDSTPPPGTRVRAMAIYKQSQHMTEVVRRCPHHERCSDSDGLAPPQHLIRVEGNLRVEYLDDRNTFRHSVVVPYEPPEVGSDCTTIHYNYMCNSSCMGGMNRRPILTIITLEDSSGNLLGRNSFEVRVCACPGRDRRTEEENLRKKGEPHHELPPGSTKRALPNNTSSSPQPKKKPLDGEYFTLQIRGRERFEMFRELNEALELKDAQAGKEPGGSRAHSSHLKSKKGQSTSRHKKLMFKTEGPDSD
# UniProt Q03181: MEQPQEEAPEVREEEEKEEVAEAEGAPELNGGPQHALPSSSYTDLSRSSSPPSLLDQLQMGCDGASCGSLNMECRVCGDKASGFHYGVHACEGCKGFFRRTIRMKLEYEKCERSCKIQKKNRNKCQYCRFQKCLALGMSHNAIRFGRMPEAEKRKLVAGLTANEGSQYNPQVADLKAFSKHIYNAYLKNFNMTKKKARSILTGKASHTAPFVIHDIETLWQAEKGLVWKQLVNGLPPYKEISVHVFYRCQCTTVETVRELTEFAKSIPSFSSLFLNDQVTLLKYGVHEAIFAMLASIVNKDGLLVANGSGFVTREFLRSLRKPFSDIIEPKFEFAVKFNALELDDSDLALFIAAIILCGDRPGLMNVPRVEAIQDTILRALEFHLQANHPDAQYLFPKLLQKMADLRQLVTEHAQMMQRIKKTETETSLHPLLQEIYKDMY
# UniProt Q96RI1: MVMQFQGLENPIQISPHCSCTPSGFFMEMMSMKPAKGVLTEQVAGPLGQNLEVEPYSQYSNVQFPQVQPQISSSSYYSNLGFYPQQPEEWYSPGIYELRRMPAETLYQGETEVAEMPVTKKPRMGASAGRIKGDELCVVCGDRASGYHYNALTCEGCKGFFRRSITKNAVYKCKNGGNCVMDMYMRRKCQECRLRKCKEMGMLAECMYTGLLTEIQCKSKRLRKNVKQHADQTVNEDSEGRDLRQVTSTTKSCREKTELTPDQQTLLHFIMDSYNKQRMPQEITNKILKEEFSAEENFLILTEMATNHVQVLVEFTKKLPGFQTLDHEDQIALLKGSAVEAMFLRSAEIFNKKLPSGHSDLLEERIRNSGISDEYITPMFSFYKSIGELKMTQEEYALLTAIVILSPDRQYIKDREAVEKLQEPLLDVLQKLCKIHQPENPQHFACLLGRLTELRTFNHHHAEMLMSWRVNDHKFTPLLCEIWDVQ
# UniProt P62508: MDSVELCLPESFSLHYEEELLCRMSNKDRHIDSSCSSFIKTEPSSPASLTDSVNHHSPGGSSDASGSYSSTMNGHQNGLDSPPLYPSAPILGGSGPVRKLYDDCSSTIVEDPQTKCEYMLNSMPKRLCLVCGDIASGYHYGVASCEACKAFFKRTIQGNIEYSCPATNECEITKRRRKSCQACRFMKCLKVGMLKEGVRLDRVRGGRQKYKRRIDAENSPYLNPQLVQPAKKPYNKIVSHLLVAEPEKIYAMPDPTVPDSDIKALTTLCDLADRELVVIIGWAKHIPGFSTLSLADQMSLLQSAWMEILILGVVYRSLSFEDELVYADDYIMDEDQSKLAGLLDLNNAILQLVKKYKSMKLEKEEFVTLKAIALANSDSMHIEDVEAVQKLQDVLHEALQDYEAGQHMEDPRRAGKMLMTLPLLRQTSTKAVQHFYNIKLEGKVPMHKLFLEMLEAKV
# “And” between values parts separate entries of the source, which are not always exact repeats. Equal values may be shown once. Inconclusive means that the source gave no clear call. Such entries were picked first, then a sample of the others. For some assays here: Where the call is inconclusive, the potency comes from a doubtful curve fit. The source holds several records for some structures; these can differ, active in one and inactive in another. The source made the active and inactive calls. How the source made its calls: active means hit-call score of the fitted dose curve at least 0.9, where 1 is the maximum; inconclusive means response in the unintended direction; inactive means score below 0.9.
# Assays:
# [1] = ATG_M_32_TRANS: Attagene TRANS-FACTORIAL HepG2 Assay for M32 Transcription Factor (Internal Marker) (AID 2282984); conditions: HepG2 Attagene TRANS M32 internal marker reporter;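 on outcome: transcript level of a background control reporter unit measured by RT-PCR and capillary electrophoresis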
# Outline: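 Internal-marker readout from a multiplexed transcription reporter panel. HepG2 cells were transfected with GAL4-UAS reporter units, treated 24 hours, and reporter transcript levels determined by fluorescence after RT-PCR and capillary separation.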
# [2] = target: Nuclear receptor subfamily 1 group I member 2 (Homo sapiens) (UniProt O75469); assay: ATG_PXR_TRANS: Attagene TRANS-FACTORIAL HepG2 Assay for human Pregnane X Receptor (PXR) (AID 2283008)
# Outline: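 Transient HepG2 transfectants carrying multiplexed reporter transcription units; PXR activity read through a Gal4 chimera. 24 h exposure. RT-PCR/CE fluorescence; upward curve fit referenced to DMSO.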
# [3] = ACEA_ER_AUC_viability: ACEA Biosciences xCELLigence Real-Time Cell Analysis on Estrogen Receptor Agonism for Viability (AID 2283782);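 further: hit means loss of impedance signal meaning reduced cell growth or viability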
# Outline: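 Read-out: real-time electrical impedance (RT-CES) area under curve, loss of signal taken as reduced viability, normalized to DMSO baseline. T-47D cells, charcoal-stripped serum medium, compounds up to 100 uM final, continuous exposure, 80 h.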
# [4] = target: Retinoic acid receptor RXR-alpha (Homo sapiens) (UniProt P19793); assay: ATG_RXRa_TRANS: Attagene TRANS-FACTORIAL HepG2 Assay for human Retinoid X Receptor alpha (RXRa) (AID 2283012)
# Outline: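 TRANS format reporting activity of exogenous RXRa-Gal4 chimera in transiently transfected HepG2, 24 h exposure. Reporter transcripts quantified by RT-PCR with capillary electrophoresis, with gain of signal scored relative to DMSO.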
# [5] = target: human Vitamin D Receptor (VDR), VDR (gene 7421) (UniProt P11473); assay: ATG_VDR_TRANS: Attagene TRANS-FACTORIAL HepG2 Assay for human Vitamin D Receptor (VDR) (AID 2283022)
# Outline: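 HepG2 cells were transiently transfected with GAL4-UAS reporter units and a chimeric VDR-Gal4 construct, then dosed for 24 hours. Reporter mRNA was quantified by RT-PCR, fluorescent labeling, HpaI digestion and capillary electrophoresis; gain of signal analysed vs DMSO.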
# [6] = target: Estrogen receptor (Homo sapiens) (UniProt P03372); assay: NVS_NR_hER: NovaScreen (NVS) Nuclear Receptor Binding Assay for human Estrogen Receptor (ER) (AID 2283348)
# Outline: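 MCF7-derived receptor extract, radiolabelled ligand, competitive displacement. Read: scintillation counts at 18 h. DMSO = negative control/baseline. Primary 25 uM duplicate; follow-up concentration–response.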
# [7] = target: mouse Estrogen Receptor alpha (Era), Esr1 (gene 13982) (UniProt P19785); assay: NVS_NR_mERa: NovaScreen (NVS) Nuclear Receptor Binding Assay for mouse Estrogen Receptor alpha (Era) (AID 2283378);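 further: hit means loss of bound radioligand signal relative to DMSO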
# Outline: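 Cell-free radioligand competitive displacement binding, read by filter-based scintillation counting 18 h after dosing. Primary screen run in duplicate at 25 uM, actives retested in concentration series; loss of signal versus DMSO.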
# [8] = target: Retinoic acid receptor RXR-alpha (Homo sapiens) (UniProt P19793); assay: OT_NURR1_NURR1RXRa_0480: Odyssey Thera (OT) 8-hour HEK293T Protein Complementation Assay for Nurr1/retinoid X receptor (RXR) (AID 2283385)
# Outline: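 Interaction of Nurr1 with RXRα read as reconstituted reporter fluorescence in a HEK293T fragment-complementation system, 8 h post-treatment; increase over DMSO baseline analysed.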
# [9] = target: Cellular tumor antigen p53 (Homo sapiens) (UniProt P04637); assay: TOX21_p53_BLA_p2_ratio: Tox21 HCT-116 p53 Agonism Beta-lactamase Assay, Ratio, Phase 2 (AID 2283592)
# Outline: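 First, HCT116 reporter cells settle for 5 h at 37C. Next, DMSO compound solutions are pinned in (217-fold dilution) and left 16 h. Finally, CCF4-AM substrate is loaded 2 h at room temperature and the 460/530 nm ratio read.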
# [10] = target: Cellular tumor antigen p53 (Homo sapiens) (UniProt P04637); assay: TOX21_p53_BLA_p3_ratio: Tox21 HCT-116 p53 Agonism Beta-lactamase Assay, Ratio, Phase 3 (AID 2283596)
# Outline: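 Cells were seeded at 4000/well, rested 5 h at 37C, then dosed with DMSO compound solutions (217-fold dilution) for 16 h. CCF4-AM substrate was loaded for 2 h at room temperature, and the 460/530 nm emission ratio was fitted for gain of signal versus DMSO.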
# [11] = target: Cellular tumor antigen p53 (Homo sapiens) (UniProt P04637); assay: TOX21_p53_BLA_p5_ratio: Tox21 HCT-116 p53 Agonism Beta-lactamase Assay, Ratio, Phase 5 (AID 2283599)
# Outline: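 HCT-116 p53-bla cells (4000/well) plated 5 h, dosed with compound (217-fold DMSO dilution) for 16 h at 37 C; CCF4-AM substrate 2 h at room temperature. Activity is the 460/530 nm emission ratio (405 nm excitation), fitted in gain-of-signal direction versus DMSO.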
# [12] = target: Cellular tumor antigen p53 (Homo sapiens) (UniProt P04637); assay: TOX21_p53_BLA_p4_ratio: Tox21 HCT-116 p53 Agonism Beta-lactamase Assay, Ratio, Phase 4 (AID 2283601)
# Outline: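 HCT-116 p53 beta-lactamase reporter cells (4000/well) preincubated 5 h, then compound (217-fold dilution of DMSO stock) for 16 h at 37C. CCF4-AM substrate added 2 h at room temperature; 460/530 nm emission ratio fitted upward versus DMSO.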
# [13] = ATG_M_06_TRANS: Attagene TRANS-FACTORIAL HepG2 Assay for M06 Transcription Factor (Internal Marker) (AID 2282983); conditions: HepG2 Attagene TRANS M06 internal marker reporter;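 on AC50: potency for rise in reporter mRNA above DMSO baseline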
# Outline: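 mRNA levels of a reporter transcript, quantified as FAM fluorescence on capillary electrophoresis, served as readout. HepG2 cells expressing exogenous GAL4-chimera reporter constructs were exposed for 24 h. Gain of signal over DMSO was evaluated.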
# [14] = ATG_XTT_Cytotoxicity: Cytotoxicity Assessment in the Attagene TRANS-FACTORIAL HepG2 Assay (AID 2283584);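 on AC50: XTT signal for cell number as viability in transfected HepG2 cells; cells exposed to compound for 24 h before reading; active means loss of viability signal versus DMSO baseline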
# Outline: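 HepG2 cells transiently transfected with GAL4-UAS multiple reporter units, dosed 24 h; cytotoxicity read by XTT as loss of signal versus DMSO baseline.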
# [15] = target: Retinoic acid receptor RXR-alpha (Homo sapiens) (UniProt P19793); assay: OT_NURR1_NURR1RXRa_1440: Odyssey Thera (OT) 24-hour HEK293T Protein Complementation Assay for Nurr1/retinoid X receptor (RXR) (AID 2283386)
# Outline: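 Gain in fluorescence, fitted relative to DMSO, reflects Nurr1–RXRα association in HEK293T cells after 24 h dosing. Bait and prey are each linked to a reporter-protein fragment that reassembles on interaction.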
# [16] = target: human Peroxisome Proliferator-activated Receptor delta (PPARd), PPARD (gene 5467) (UniProt Q03181); assay: ATG_PPARd_TRANS: Attagene TRANS-FACTORIAL HepG2 Assay for human Peroxisome Proliferator-activated Receptor delta (PPARd) (AID 2283002)
# Outline: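 HepG2 cells transiently transfected with GAL4-UAS multiplexed reporter units driven by exogenous chimeric NR-GAL4 proteins; 24 h compound exposure. Reporter mRNA measured by RT-PCR, 6-FAM primer extension, HpaI digestion and capillary electrophoresis; gain of signal fitted relative to DMSO.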
# [17] = TOX21_p53_BLA_p5_viability: Viability Assessment in the Tox21 HCT-116 p53 Agonism Beta-lactamase Assay, Phase 5 (AID 2283600)
# Outline: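 Decreased CellTiter-Glo luminescence denotes lost viability. Exposure: 16 h at 37C, 5% CO2, with compounds from DMSO stocks diluted 217-fold in wells of 4000 cells.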
# [18] = target: Bile acid receptor (Homo sapiens) (UniProt Q96RI1); assay: ATG_FXR_TRANS: Attagene TRANS-FACTORIAL HepG2 Assay for Farnesoid X Receptor (FXR) (AID 2282979); conditions: HepG2 Attagene TRANS FXR-GAL4 reporter transcription;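 further: hits raise reporter mRNA above DMSO so AC50 marks FXR activation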
# Outline: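 HepG2 cells were transiently transfected with GAL4-UAS reporters driven by chimeric NR-Gal4 proteins and dosed for 24 h. Reporter mRNA was quantified by RT-PCR, fluorescent labelling, HpaI digestion and capillary electrophoresis, with gain of signal scored versus DMSO.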
# [19] = target: Estrogen-related receptor gamma (Homo sapiens) (UniProt P62508); assay: ATG_ERRg_TRANS: Attagene TRANS-FACTORIAL HepG2 Assay for human Estrogen-Related Receptor gamma (ERRg) (AID 2282977); conditions: HepG2 Attagene TRANS reporter, ERRg transactivation;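 further: hits increase reporter signal over DMSO so potencies reflect activators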
# Outline: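 Exogenous NR-Gal4 chimera activity measured as reporter transcript induction after 24 h in transiently transfected HepG2 cells. RNA reverse-transcribed, PCR-amplified, 6-FAM-labelled and resolved by capillary electrophoresis; increase over DMSO baseline.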
structure (smiles),measurement,setting,value
CCCCCCCC=O,AC50,[4],inconclusive: 0.00829 µM
same,outcome,[5],inactive
same,AC50,[6],inconclusive: 25 µM
same,AC50,[7],inconclusive: 0.852 µM
same,AC50,[8],inconclusive: 50 µM
same,outcome,[8],inactive
same,AC50,[9],inconclusive: 45.8 µM
same,AC50,[10],inconclusive: 46.1 µM
same,AC50,[11],inconclusive: 46.1 µM and inconclusive: 45.8 µM
same,AC50,[3],inconclusive: 50 µM
CC(C)(O)C(=O)c1ccc(OCCO)cc1,outcome,[13],inactive
same,outcome,[14],inactive
same,outcome,[11],inactive
same,AC50,[12],inconclusive: 46.1 µM
Cc1ccc2c(c1)CCCN2,outcome,[2],inactive
same,outcome,[14],inactive
same,outcome,[3],inactive
O=C1OC2(c3ccc(O)cc3Oc3cc(O)ccc32)c2ccccc21,AC50,[1],inconclusive: 0.139 µM
same,AC50,[6],active: 9.78 µM
same,outcome,[6],inactive
same,AC50,[7],active: 25 µM
same,AC50,[8],inconclusive: 0.262 µM
same,AC50,[15],inconclusive: 0.316 µM
same,AC50,[14],inconclusive: 59.3 µM
same,AC50,[3],inconclusive: 92.7 µM
ON(Cc1ccccc1)Cc1ccccc1,AC50,[13],inconclusive: 0.405 µM
same,outcome,[4],inactive
same,outcome,[5],inactive
same,AC50,[11],inconclusive: 46.1 µM
same,AC50,[12],inconclusive: 46.1 µM
CCCCCCCO,outcome,[15],inactive
same,AC50,[3],inconclusive: 50 µM
CCCOCCOCCOCCO,AC50,[18],inconclusive: 100 µM
same,AC50,[13],inconclusive: 0.00914 µM
same,outcome,[16],inactive
same,AC50,[4],inconclusive: 100 µM
same,outcome,[5],inactive
same,outcome,[12],inactive
CCCC(=O)C(C)=O,outcome,[19],inactive
same,AC50,[16],inconclusive: 0.0829 µM
same,AC50,[4],inconclusive: 19.8 µM
same,outcome,[5],inactive
same,outcome,[11],inactive
same,outcome,[17],inactive

# 2 records drawn at random from the list so far:
structure (smiles),measurement,setting,value
Cc1ccc2c(c1)CCCN2,outcome,[14],inactive
same,outcome,[3],inactive
